Sequences of proteins named here, by UniProt entry; tags and fusion partners are left off.
UniProt F5HJT6, entry or part of it: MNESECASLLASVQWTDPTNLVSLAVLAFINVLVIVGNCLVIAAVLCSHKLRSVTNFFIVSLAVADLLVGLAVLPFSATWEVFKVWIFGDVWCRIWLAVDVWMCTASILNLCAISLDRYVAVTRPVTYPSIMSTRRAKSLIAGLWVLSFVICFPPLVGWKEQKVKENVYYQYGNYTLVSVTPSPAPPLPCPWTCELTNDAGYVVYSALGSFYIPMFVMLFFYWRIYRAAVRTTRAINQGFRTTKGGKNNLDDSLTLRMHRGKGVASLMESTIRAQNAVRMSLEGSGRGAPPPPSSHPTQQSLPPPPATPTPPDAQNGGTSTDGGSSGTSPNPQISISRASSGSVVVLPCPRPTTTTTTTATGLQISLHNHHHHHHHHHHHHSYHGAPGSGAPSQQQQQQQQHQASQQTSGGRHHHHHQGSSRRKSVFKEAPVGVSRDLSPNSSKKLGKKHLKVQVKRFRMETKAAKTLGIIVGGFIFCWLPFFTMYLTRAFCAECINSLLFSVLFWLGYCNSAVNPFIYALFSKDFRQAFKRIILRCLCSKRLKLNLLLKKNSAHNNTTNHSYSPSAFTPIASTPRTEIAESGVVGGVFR

In PMC4253978, “Characterization of the Anopheles gambiae octopamine receptor and discovery of potential agonists and antagonists using a combined computational-experimental approach” (Malaria Journal, 2014):

Biological target: AgOAR45B (Anopheles gambiae, UniProt F5HJT6)
Assay type: cell-based
Conditions: read-out: IC 50 (antagonist), in the presence of 1 μM octopamine
Protocol: GloResponse™CRE-luc2P HEK293 reporter cell line (Promega) were maintained as adherent culture at 37°C, 5% CO2 in DMEM (Invitrogen) supplemented with 10% fetal calf serum (Atlanta), and […] hygromycin B. Transfection of cells was carried out using the Amaxa Nucleofector kit per the manufacturer’s instructions. […] Stable lines were created by applying […] G418 for three weeks. Stable clones of AgOAR45B expressing HEK293 reporter cells were created through two rounds of limiting dilution cloning.
Intracellular cAMP increase was monitored through a CRE-luc reporter construct in HEK293 cells (Promega). Stable cell lines were plated at a density of 4×10^4 cells per well in white 96-well assay plates (Corning, Cat. #3917). Cells were immediately treated with the various compounds, and returned to the incubator for four hours before being assayed. cAMP was quantified through luciferase production using the Dual-Glo luciferase assay kit (Promega) following the manufacturer’s instructions. Luciferase units were normalized to the cell number using the internal Rluc construct in the pF9A expression plasmid.

CN1CCC(=C2c3ccccc3C=Cc3ccccc32)CC1 [Cyproheptadine, cyproheptadine]
IC50: 14 µM
